From PubChem BioAssay AID504444 (National Center for Advancing Translational Sciences (NCATS), 2011)
The whole screen tested about 360,000 compounds, of which about 7,500 (2.1%) were called active. The inconclusive results got no clear call from the source; some entries with a clear call stand among them for comparison. Calls come from the whole dose curve; as a rule, active = well fitted inhibition curve with a large enough effect; inconclusive = small, poorly fitted or top-dose-only effect, or effect the other way; inactive = flat fitted curve, though single readings scatter. Potencies of inconclusive entries are doubtful fits and often do not repeat.
Potency is the fitted concentration of half-maximal effect.

Experiment: Nrf2 qHTS screen for inhibitors; note: nearly all actives have a fitted effect of over 60% in size
Conditions: A549 ARE-Fluc reporter, luciferase luminescence, 18-24 h; series mostly up to 46 µM
Summary of the method: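 Quantitative HTS in A549 cells stably bearing an antioxidant response element-firefly luciferase construct. Inhibition of Nrf2-driven transcription was scored by luminescence after 18-24 h of compound exposure at 37 °C.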
With `Cc1ccc(-c2nnn(CC(=O)Nc3ccc(S(=O)(=O)N4CCC(C)CC4)cc3)n2)cc1` the Potency was inconclusive: 23.1 µM [falling, partial curve, poor fit].
For `Cc1ccc(C)c(OCc2cc(C(=O)NC3CCN(Cc4ccccc4)CC3)no2)c1`, the Potency was inconclusive: 32.6 µM [falling, single point].
In the case of `O=c1c2ccccc2nc(/C=C/c2cccc(Br)c2)n1CCCO`, the Potency is reported as “inactive”.
In the case of `CCOC(CNc1ncnc2sc(-c3ccccc3)cc12)OCC`, the Potency is reported as inconclusive: 25.9 µM [falling, partial curve, poor fit].
With `CC(=O)Nc1ccc(S(=O)(=O)Nc2ccc(C)c([N+](=O)[O-])c2)cc1` the Potency was active: 25.9 µM.
With `CCOC(=O)CSc1nnc(NC(=O)CN2CCCCC2)s1` the Potency was “inactive”.
With `CCOC(=O)CCc1c(C)nc2c(-c3ccccc3)c(C)[nH]n2c1=O` the Potency was inconclusive: 13 µM [falling, partial curve].
With `CCOC(=O)C1CCN(S(=O)(=O)c2ccc3[nH]c(=O)oc3c2)CC1` the Potency was inconclusive: 8.2 µM [falling, full curve, poor fit].
For `COc1ccc(S(=O)(=O)N2CCN(c3cnccn3)CC2)cc1OC`, the Potency was inconclusive: 23.1 µM [falling, partial curve, poor fit].
In the case of `CCn1c(CNc2ccc(Cl)cc2)nnc1SCC(=O)OC1CCCCC1`, the Potency is reported as inconclusive: 29.1 µM [falling, single point].
In the case of `CC(C)C[C@H](NC(=O)C1CC(=O)N(c2ccc3c(c2)OCCO3)C1)C(=O)NC1CCCC1` (stereo not given in full), the Potency is reported as inconclusive: 18.4 µM [falling, partial curve, poor fit].
With `COc1ccc(OC)c(NS(=O)(=O)c2ccc(NC(=O)c3ccc(NS(C)(=O)=O)cc3)cc2)c1` the Potency was inconclusive: 20.6 µM [falling, single point].
In the case of `O=C1CC(SC(=Nc2ccccc2)Nc2ccccc2)C(=O)N1c1cccc(Cl)c1` (stereo not given), the Potency is reported as inconclusive: 14.6 µM [falling, partial curve, poor fit].
In the case of `Cc1cc(=O)oc2cc(OCC(=O)N/N=C/c3cc([N+](=O)[O-])ccc3O)ccc12`, the Potency is reported as inconclusive: 4.11 µM [activator, full curve, poor fit].
In the case of `Cc1ccccc1OCCCC(=O)NCc1ccco1`, the Potency is reported as “inactive”.
For `O=C1C(Oc2ccc(Cl)cc2)C(c2ccc3c(c2)OCO3)N1CC1CCCO1` (stereo not given), the Potency was inconclusive: 23.1 µM [falling, single point].
With `Cc1cc(=O)n(Cc2cccc(Cl)c2)c2c1c(C)nn2C` the Potency was “inactive”.
With `O=C(NCCCN1CCOCC1)c1ccc2c(c1)N(Cc1c(F)cccc1Cl)C(=O)c1ccccc1S2` the Potency was “inactive”.
With `CC(C)c1ccc2[nH]c(O)c(N=NC(=O)c3cccc(S(=O)(=O)N4CCCCC4)c3)c2c1` the Potency was active: 18.4 µM.
In the case of `Fc1ccc(-c2noc3ncnc(NCCc4ccc(Cl)cc4)c23)cc1`, the Potency is reported as inconclusive: 18.4 µM [falling, single point].
In the case of `CCOC(=O)c1cnc(SCC(=O)N2CCc3ccccc32)nc1N`, the Potency is reported as inconclusive: 29.1 µM [activator, single point].
In the case of `COc1ccc(C(=O)NCCNc2nc3ccc(C)cc3cc2C#N)cc1`, the Potency is reported as inconclusive: 18.4 µM [falling, single point].
For `C[C@@H]1CCC(=O)N(CC[C@H](Sc2ccccc2)c2ccccc2)CC1`, the Potency was inconclusive: 29.1 µM [falling, single point].
In the case of `COc1cccc(C(=O)Nc2cc(NC(=O)c3cccs3)ccc2C)c1OC`, the Potency is reported as inconclusive: 6.51 µM [falling, partial curve, poor fit].
In the case of `CC(C)COc1ccc(/C(=N/O)c2ccccc2)cc1`, the Potency is reported as inconclusive: 32.6 µM [falling, single point].
For `CCCCNC(=S)N1CCn2cccc2C1c1ccc(F)cc1` (stereo not given), the Potency was inconclusive: 20.6 µM [falling, single point].
In the case of `CCOC(=O)N1CCN(S(=O)(=O)c2ccc(C)cc2)C1c1ccc(OC)cc1` (stereo not given), the Potency is reported as inconclusive: 25.9 µM [falling, single point].
With `COC(=O)c1cncc(C)c1` the Potency was “inactive”.
In the case of `Cc1cccc(C(=O)NCCc2nc3ccccc3n2Cc2ccccc2Cl)c1`, the Potency is reported as inconclusive: 20.6 µM [falling, single point].
For `Cc1cc(Nc2cccc(C(F)(F)F)c2)nc2ccc(NC(=O)Cc3ccc(Cl)cc3)cc12`, the Potency was active: 16.4 µM.
With `[O-]/C(=C(\C(=S)Nc1cccc2ccccc12)[n+]1ccccc1)c1ccc2c(c1)OCCO2` the Potency was inconclusive: 32.6 µM [falling, partial curve, poor fit].
For `Nc1nnc(-c2ccccc2F)s1`, the Potency was inconclusive: 23.1 µM [activator, single point].
For `Cc1cc(C)c(C(=O)CN2C(=O)NC3(CCCCC3)C2=O)cc1C`, the Potency was inconclusive: 13 µM [activator, partial curve, poor fit].
For `Nc1ncnc2c1ncn2[C@H]1C[C@H](O)[C@@H](COP(=O)(O)O)O1`, the Potency was inconclusive: 25.9 µM [activator, partial curve, poor fit].
For `CCc1nc(Sc2nnnn2-c2ccccc2)c2c3c(sc2n1)CCCC3`, the Potency was inconclusive: 2.31 µM [activator, partial curve].
In the case of `COc1ccc(OC)c(-c2noc(CSc3nnc(-c4ccccc4)n3-c3ccccc3)n2)c1`, the Potency is reported as inconclusive: 29.1 µM [falling, single point].
In the case of `CC(C)n1ncc2c(C(=O)NCc3ccccc3CN(C)C)cc(C3CC3)nc21`, the Potency is reported as “inactive”.
In the case of `Cc1[nH]c2ccccc2c1/C=C/c1nc2ccccc2c(=O)[nH]1`, the Potency is reported as inconclusive: 1.84 µM [activator, full curve].
In the case of `COc1ccc(NS(=O)(=O)c2cccc(C(=O)NCc3ccccc3CN3CCOCC3)c2)cc1`, the Potency is reported as inconclusive: 16.4 µM [falling, partial curve].
With `COc1ccc(N2CCN(S(=O)(=O)c3ccc(C4CCCCC4)cc3)CC2)cc1` the Potency was “inactive”.
For `COC(=O)[C@]1(CC(C)C)N[C@H](c2ccc(-c3ccc(F)cc3)cc2)[C@@H]2C(=O)N(C)C(=O)[C@@H]21`, the Potency was inconclusive: 29.1 µM [falling, single point].
In the case of `Cc1ccc(N2C(=O)CS/C2=C(\C(Cl)=C(Cl)Cl)[N+](=O)[O-])cc1`, the Potency is reported as “inactive”.
For `O=C(Nc1cccc(-c2csc(Nc3ccc(Cl)cc3)n2)c1)c1cccc(C(F)(F)F)c1`, the Potency was inconclusive: 29.1 µM [falling, single point].
In the case of `O=C(c1ccco1)N1CCN(c2ccc([N+](=O)[O-])cc2Cl)CC1`, the Potency is reported as inconclusive: 25.9 µM [falling, single point].
In the case of `O=C(N/N=C\c1c(O)ccc2ccccc12)c1ccc(S(=O)(=O)N2CCCCC2)cc1`, the Potency is reported as inconclusive: 5.17 µM [falling, full curve, poor fit].
In the case of `COc1cc(/C=N/N=C(/N)c2nonc2N)cc(Br)c1OCc1cccc(C)c1`, the Potency is reported as active: 20.6 µM.
For `O=c1oc2cc(O)ccc2cc1-c1ccccc1`, the Potency was inconclusive: 32.6 µM [activator, single point].
In the case of `O=C(CNC(=O)OCc1ccccc1)Oc1cc2oc(=O)cc(-c3ccccc3)c2cc1Cl`, the Potency is reported as inconclusive: 3.26 µM [activator, single point].
With `C=CC[n+]1c(-c2ccc(OCC)cc2)csc1NNC(=O)Nc1ccccc1` the Potency was active: 14.6 µM.
In the case of `O=C(NCc1ccccn1)c1ccco1`, the Potency is reported as inconclusive: 2.91 µM [activator, full curve, poor fit].
In the case of `COc1ccc2nc(SCC(=O)N(C)CC(=O)Nc3ccc(F)cc3)[nH]c2c1`, the Potency is reported as inconclusive: 29.1 µM [activator, single point].
With `CCCOc1ccc(C2NC(=S)NC(c3ccccc3)=C2C(=O)Nc2ccc(C)cc2)cc1OC` (stereo not given) the Potency was inconclusive: 11.6 µM [falling, partial curve, poor fit].
With `NC(=O)CC(NC(=O)Cc1ccc(Br)cc1)c1ccc(NCC2CC2)c([N+](=O)[O-])c1` (stereo not given) the Potency was inconclusive: 0.82 µM [activator, full curve, poor fit].
In the case of `O=C1CSC(=Nc2ccccc2[N+](=O)[O-])N1`, the Potency is reported as inconclusive: 6.51 µM [falling, single point].
With `COCCNC(=O)C1CCC(CNS(=O)(=O)c2ccc(F)cc2)CC1` (stereo not given) the Potency was inconclusive: 29.1 µM [falling, single point].
With `Cn1c(N)c(C(=O)CSc2nc(N)cc(N)n2)c(=O)n(C)c1=O` the Potency was “inactive”.
For `N/C(Cc1ccc(Cl)cc1Cl)=N\OC(=O)c1ccccc1F`, the Potency was inconclusive: 18.4 µM [activator, single point].
In the case of `COc1ccc2cc(/C(C)=N/NC(=O)C3CC3)ccc2c1`, the Potency is reported as inconclusive: 3.66 µM [activator, full curve].
In the case of `Cc1cc(N(CCO)Cc2ccccc2)n2nc(-c3ccc(C(C)(C)C)cc3)nc2n1`, the Potency is reported as inconclusive: 32.6 µM [falling, single point].
For `CCCCOC(=O)Nc1cccc(C(C)=O)c1`, the Potency was inconclusive: 29.1 µM [activator, single point].
For `CC1CCN(S(=O)(=O)c2ccc(C(=O)Nc3nnc(C4=COCCO4)o3)cc2)CC1`, the Potency was inconclusive: 29.1 µM [falling, single point].
In the case of `Cc1cc(C)c(S(=O)(=O)Nc2ccc3oc4c(c3c2)C(=O)CC(C)(C)C4)cc1C`, the Potency is reported as inconclusive: 29.1 µM [falling, single point].
In the case of `CCOC(=O)N1CCN(S(=O)(=O)/C=C/c2ccccc2)CC1`, the Potency is reported as “inactive”.
In the case of `CC(C)(C)c1csc(NNC(=O)c2ccc(Br)cc2)n1`, the Potency is reported as inconclusive: 23.1 µM [falling, single point].
For `O=C(NCc1ccc2c(c1)OCO2)Nc1ccc([N+](=O)[O-])cc1`, the Potency was inconclusive: 13 µM [falling, partial curve, poor fit].
